According to the supplement of paper PMC4683952:
Some of the results follow. Cut-off read from the data, not from the text of the source: active = 2 or more and inactive = the rest. Repeats in this data set agree poorly, so a single value says little.

system: Lgr5 (MarsCy1-Lgr5-EGFP, U2OS); test: cell-surface Lgr5 expression (SCi1 fluorescence, background-subtracted) relative to WT DMSO (fold of DMSO control); higher = more Lgr5 at the plasma membrane; details: U2OS MarsCy1-Lgr5-EGFP stable; treatment time: overnight; library: ActiProbe-5K (TimTec); 25 µM

| Compound | cell-surface Lgr5 expression |
| --- | --- |
| Cc1c(C2CC(C(F)(F)F)n3nccc3N2)cnn1C (stereo not drawn) | inactive: 1.19 |
| FC(F)(F)c1ccc(-c2nnc3cccc(Cl)n23)cc1 | inactive: 1.34 |
| S=c1[nH]cc(-c2ccc(Cl)cc2)n1C12CC3CC(CC(C3)C1)C2 | inactive: 1.71 |
| N#C/C(=C\c1cc(Br)cs1)C(N)=O | inactive: 1.09 |
| Cc1cc(C)n2nnnc2n1 | inactive: 1.31 |
| Cc1ccc(/C=N/n2cnnc2)s1 | inactive: 0.886 |
| O=C(O)c1cc([N+](=O)[O-])[nH]n1 | inactive: 1.12 |
| c1coc(CCC2NCCn3cccc32)c1 (stereo not drawn) | inactive: 1.2 |
| S=C(SCc1cccs1)N1CCOCC1 | inactive: 0.195 |
| CCCCCCCCNc1nc(NCCC)nc(OCC)n1 | inactive: 1.12 |
| Fc1ccc(NC(=S)NCC2CCCO2)cc1 (stereo not drawn) | inactive: 1.06 |
| CC(=N/Oc1nc(nc(n1)N(C)C)N(C)C)/C | inactive: 1.61 |
| Cc1cc(-c2oc(N)c(C#N)c2-c2cc(C)sc2C)c(C)s1 | inactive: 0.991 |
| O=C(O)C1(N2CCOCC2)CCNCC1 | inactive: 1.5 |
| CC1CC(=O)C2CCCCC2S1 (stereo not drawn) | inactive: 0.892 |
| CCCC(C)NC(=O)N1CCOCC1 (stereo not drawn) | inactive: 0.996 |
| N#Cc1c(C(F)(F)F)cc(-c2ccccc2)nc1SC(CCC1CC1)c1ccccc1 (stereo not drawn) | inactive: 1.03 |
| Cc1nc2c(oc3ccccc32)c(=O)o1 | inactive: 1.22 |
| Brc1ccc2ncccc2c1 | inactive: 1.26 |
| O=S1(=O)N=C(N/N=C/c2ccccn2)c2ccccc21 | inactive: 0.702 |
| O=Cc1csc(Cn2cnc([N+](=O)[O-])n2)c1 | inactive: 0.957 |
| COCCCN1C(=O)/C(=C\c2cnn(C)c2)N=C1S | inactive: 1.13 |
| FC(F)Oc1cccc2cccnc12 | inactive: 1.19 |
| CN(C)S(=O)(=O)c1ccc2c(c1)c(=O)nc1ccccn12 | inactive: 0.906 |
| COc1cc(OC)c(OC)cc1/C=N/n1c(S)nnc1-c1ccncc1 | inactive: 0.878 |

Five compounds picked at random from those above:

| Compound | cell-surface Lgr5 expression |
| --- | --- |
| Fc1ccc(NC(=S)NCC2CCCO2)cc1 (stereo not drawn) | inactive: 1.06 |
| Cc1ccc(/C=N/n2cnnc2)s1 | inactive: 0.886 |
| Cc1c(C2CC(C(F)(F)F)n3nccc3N2)cnn1C (stereo not drawn) | inactive: 1.19 |
| CCCC(C)NC(=O)N1CCOCC1 (stereo not drawn) | inactive: 0.996 |
| O=Cc1csc(Cn2cnc([N+](=O)[O-])n2)c1 | inactive: 0.957 |

Remaining list, next part:

| Compound | cell-surface Lgr5 expression |
| --- | --- |
| S(/C=C(\Cl)Cl)(c1cc([N+]([O-])=O)ccc1)(=O)=O | active: 2.04 |
| Clc1ccc(/C=N/n2cnnc2)c(Cl)c1 | inactive: 0.888 |
| CC[n+]1c(/C=C2/C=Cc3ccc(C)cc3N2C)sc2ccccc21 | inactive: 0.912 |
| CN(C)C(=O)C1OC(C)(C)O[C@H]1C(=O)N(C)C (stereo partly drawn) | inactive: 0.941 |
| O=C1OC(c2ccccc2F)=N/C1=C\c1c2ccccc2cc2ccccc12 | inactive: 1.2 |
| OCc1cc(-c2cccs2)no1 | inactive: 0.913 |
| Cc1cc(=O)nc(SCC(N)=O)[nH]1 | inactive: 1.15 |
| Cc1cc(C)n(NC(=O)CCn2ncc(Br)c2C)c(=O)c1 | inactive: 1.12 |
| CCc1nc(C#N)c(N2CCOCC2)o1 | inactive: 1.21 |
| CSc1snc(OC(C)C)c1C#N | inactive: 1.06 |
| C(=N\n1cnnc1)/c1c[nH]c2ccccc12 | inactive: 1.1 |
| Cc1cc(C)[n+](F)c(C)c1.O=S(=O)([O-])C(F)(F)F | inactive: 1.06 |
| CCn1ncc(S(=O)(=O)NCCCn2cc(Cl)cn2)c1C | inactive: 1.2 |
| CC1Cn2c(nnc2-c2cc3ccccc3cc2O)S1 (stereo not drawn) | inactive: 1.01 |
| Nc1ccc(Cl)c(-c2nc3cc(Cl)ccc3o2)c1 | inactive: 1.14 |
| Cc1cc(C)c2c(c1C)OC/C2=N\O | inactive: 1.13 |
| Cc1cc(C)c2nc(Cl)cc(C)c2c1 | inactive: 1.36 |
| O=C(O)c1cc2c(s1)CCC2 | inactive: 0.993 |
| CC1=CC(C)(C)N=C(Nc2nc(C)c3cc(C)cc(C)c3n2)N1 | active: 2.41 |
| Fc1ccc(/C=N\c2ccc(Cl)cn2)cc1 | inactive: 1.2 |
| Clc1ccc(COC(Cn2ccnc2)c2ccc(Cl)cc2Cl)c(Cl)c1 (stereo not drawn) | inactive: 1.43 |
| NCCNc1ccc([N+](=O)[O-])c(NC2CC2)c1 | inactive: 0.91 |
| O=C(O)c1cnc(O)nc1O | inactive: 1.3 |
| CC(C)OC(=O)CNc1n[nH]c(=S)[nH]c1=O | inactive: 1.08 |
| N#CC1=C(N)SC(N)=C(C#N)C1c1ccc(F)cc1F | inactive: 1.29 |

| Compound | cell-surface Lgr5 expression |
| --- | --- |
| S=C(Nc1ccccn1)NC1CCCCC1 | inactive: 0.953 |
| N#CCc1ccc([NH+]2CCC([O-])=C3CCCCC32)cc1 (stereo not drawn) | inactive: 1 |
| C(=N\Nc1nnn[nH]1)/c1ccc2c(c1)OCO2 | inactive: 1.38 |
| O=[N+]([O-])c1ccc2c(/N=N\c3ccc4ccccc4c3O)c(O)cc(S(=O)(=O)[O-])c2c1.[Na+] | inactive: 1.17 |
| O=C(CCCC(=O)NCCC1=CCCCC1)NCCC1=CCCCC1 | inactive: 0.983 |
| N#C/C(=C\c1ccc[nH]1)C(=O)NC1CC1 | inactive: 1.4 |
| C/C(=N\NC(=O)c1cnccn1)c1ccco1 | inactive: 1.14 |
| O=C(N/N=C/c1cccs1)c1cccs1 | inactive: 1.19 |
| Brc1ccccc1Cn1nnc(-c2ccccc2)n1 | inactive: 1.11 |
| Cc1cc(C)c(C(N)=O)c(=S)[nH]1 | inactive: 1.23 |
| O=[N+]([O-])c1cnn(CCl)c1 | inactive: 1.1 |
| Cc1ccc(C2C(C#N)=C(N)SC(N)=C2C#N)s1 | inactive: 1.12 |
| CC(C)N1C/C(=C/c2cccs2)C(=O)/C(=C/c2cccs2)C1 | inactive: 0.401 |
| S=C(NC1CCCCC1)NC1CCCCC1 | inactive: 1.1 |
| CCOC(C)Oc1ccc(Br)cc1 (stereo not drawn) | inactive: 1.22 |
| Cc1ccc2ccc3ccc(C)nc3c2n1 | inactive: 0.986 |
| O=[N+]([O-])c1ccc(-n2cnnc2)cc1 | inactive: 1.24 |
| CCc1[nH]nc2c1C1(CCOC1C)C(C#N)=C(N)O2 (stereo not drawn) | inactive: 1.02 |
| Cn1ncc(Br)c1C(=O)O | inactive: 1.3 |
| O=[N+]([O-])c1cc(Cl)ccc1N1CCCC1 | inactive: 1.25 |
| Cc1nn(C)c(-c2nc(-c3ccc(Br)o3)no2)c1Cl | inactive: 1.11 |
| c1cc(CNc2csnc2-c2nnc(Nc3ccc4c(c3)OCO4)o2)ccn1 | inactive: 0.888 |
| N#Cc1c(/N=C\c2ccco2)sc2c1CCCC2 | inactive: 1.18 |
